## Library screen at single concentrations

From ChEMBL document CHEMBL3988442, “University of Dundee, Small-Polar-MMV Screening Library” (2021).

A: 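Phenotypic screen: M. tuberculosis growth, glucose 7H9 medium, 3 days; the read-out is not stated. Tested at 500 µM. Higher reads as more growth inhibition (inferred: compounds with an IC50 in retests scored well above the rest). Size under these conditions: about 18,000 compounds, about 1,400 of them at 50% or above in at least one test.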
B: 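Growth of Mycobacterium tuberculosis over 4 days (cholesterol / DPPC medium with tyloxapol); the read-out is not stated. Compounds at 500 µM. Higher reads as more growth inhibition (inferred: compounds with an IC50 in retests scored well above the rest). Of about 18,000 compounds tested this way, about 900 (5%) reached 50% or more in at least one test.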

Each number is a percent effect as filed.
How 0% and 100% were set is not recorded. Most values in the screen are low, and negative values occur.
This is an unselected part of the compounds tested.

| # | compound | A | B |
|---|---|---|---|
| 1 | `CNC(=O)c1[nH]nc2c1CCC2` | 8.772 | 13.83 |
| 2 | `CCc1ccc(CCNC(=O)CC2CNCCO2)cc1` (stereo not shown) | 37.06 | 10.61 |
| 3 | `OC1(CN2CCc3ccccc3C2)CNCCOC1` (stereo not shown) | 10.42 | 11.64 |
| 4 | `Cc1cc(C)cc(C(C)NC(=O)NCC(=O)N(C)C)c1` (stereo not shown) | 13.82 | 1.545 |
| 5 | `Cc1ccc(OCC(O)CNC(C)C)cc1` (stereo not shown) | -0.9949 | 6.113 |
| 6 | `Cc1cc(C(=O)NC(C)c2ccncc2)ncn1` (stereo not shown) | 6.451 | 3.527 |
| 7 | `CN(CC1CCOCC1)C(=O)Cc1ccsc1` | 3.044 | -24.28 |
| 8 | `NCCc1nsc2ccccc12` | 80.48 | 69.27 |
| 9 | `COCCN1CCCN(C(=O)c2ccccc2Cl)CC1` | 21.29 | 10.06 |
| 10 | `CCCC(=O)Nc1cc(=O)n(C)c(=O)n1C` | 4.807 | -14.67 |
| 11 | `Cc1cnn(C(=O)c2nn(C)c(C)c2Cl)c1` | 33.61 | 33.68 |
| 12 | `CC(=O)c1ccc(-n2ccnn2)cc1` | 2.263 | -2.613 |
| 13 | `CCCc1nnc(SCc2nnnn2C2CC2)o1` | 38.63 | 27.87 |
| 14 | `Cc1nccn1CCCN1CCN(C2CCNC2)CC1` (stereo not shown) | 4.699 | -10.19 |
| 15 | `CCNC(=O)c1cn2ccc(C)cc2n1` | 4.273 | -3.62 |
| 16 | `NC(=O)C1CCC(NC(=O)c2cc(F)cc(F)c2)CC1` (stereo not shown) | 14.87 | -0.3504 |
| 17 | `Cn1c(COC(=O)C2(C)CCCC2)cc(=O)n(C)c1=O` | -3.819 | -7.781 |
| 18 | `CNCCCNS(C)(=O)=O` | -3.966 | -3.415 |
| 19 | `NCc1cnc2ccsc2c1` | 7.796 | -0.346 |
| 20 | `COCCCNC(=O)c1ccc(NC(C)=O)cc1` | 4.07 | -14.61 |
| 21 | `CC(C)C(O)CCNC(=O)Cc1cccc(O)c1` (stereo not shown) | 66.05 | 43.35 |
| 22 | `CCN(Cc1cc(O)nc2ccccc12)C(=O)C(C)C` | 33.53 | 2.074 |
| 23 | `O=S(=O)(c1ccc2nsnc2c1)N1CCOCC1` | 1.613 | -1.49 |
| 24 | `CCC(C(=O)NCc1n[nH]c(N)n1)n1cccn1` (stereo not shown) | 9.919 | 12.89 |
| 25 | `CNC(=O)N1CCNCC1` | 2.471 | 10.94 |
| 26 | `Cc1nnc(CCNC(=O)c2c(C)nn(C)c2C)s1` | -9.067 | -15.04 |
| 27 | `OCCCN(CCO)Cc1c(Cl)ccc2cccnc12` | 15.65 | 2.478 |
| 28 | `CCC(CC)(CN)C(=O)N1CCC(C)(C)C1` | 32.77 | 15.03 |
| 29 | `CN(CC(N)=O)Cc1ccc(S(=O)(=O)N2CCCC2)o1` | 31.93 | 3.031 |
| 30 | `CNCC(=O)NCCc1nc(-c2cccnc2)n[nH]1` | 9.041 | 2.852 |
| 31 | `NCC1CC(=O)N(C2CCCC2)C1` (stereo not shown) | 10.69 | 12.99 |
| 32 | `COc1cc(NC(=O)C2CCC2)c(C(N)=O)cc1OC` | -17.55 | -32.46 |
| 33 | `Cc1cc(C(=O)O)cc(N2C[C@H](C3CC3)[C@@H](N)C2)n1` | 4.996 | 5.508 |
| 34 | `CCCc1nc(CN2Cc3ncccc3C2=O)cs1` | 81.33 | 40.09 |
| 35 | `Cc1ccnc(NCCO)c1` | -6.916 | -7.989 |
| 36 | `CC(=O)c1ccc2c(c1)n(C)c(=O)n2C` | -36.22 | -58.01 |
| 37 | `Cc1ccsc1CNC(=O)C(NC(N)=O)C(C)C` (stereo not shown) | 2.253 | -12.83 |
| 38 | `COC[C@@H]1CCCN1Cc1cc2n(n1)CCCNC2` | 6.007 | -7.851 |
| 39 | `CSCCC(=O)N(C)Cc1cccc(-n2cccn2)c1` | 75.35 | 65.14 |
| 40 | `CC(C)N(C)S(=O)(=O)NC1CCOc2ccccc21` (stereo not shown) | 56.07 | 31.75 |
| 41 | `CC(=O)NCCNc1cc(C2CC(O)C2)ncn1` (stereo not shown) | 0.3035 | -3.484 |
| 42 | `CN1C(=O)C[C@H](CN)[C@H]1c1ccccc1` | -8.338 | -21.61 |
| 43 | `Fc1ccc(N2CCNCC2)nc1` | 7.624 | 8.955 |
| 44 | `CCN(CCNS(C)(=O)=O)Cc1cccc2c1OCO2` | 0.3729 | 2.932 |
| 45 | `COc1ccc(NC(=O)[C@H](C)NC(N)=O)cc1Cl` | -8.939 | -19.34 |
| 46 | `COCCC(=O)NCc1ccccc1CN(C)C` | 2.277 | -13.58 |
| 47 | `Cc1cc(C)cc(N2CCNCC2=O)c1` | -3.38 | 3.406 |

4 of the entries, repeated:

{"compound": "NCC1CC(=O)N(C2CCCC2)C1", "stereo": "stereo not shown", "A": 10.69, "B": 12.99}
{"compound": "Cn1c(COC(=O)C2(C)CCCC2)cc(=O)n(C)c1=O", "A": -3.819, "B": -7.781}
{"compound": "CN(CC(N)=O)Cc1ccc(S(=O)(=O)N2CCCC2)o1", "A": 31.93, "B": 3.031}
{"compound": "CCC(C(=O)NCc1n[nH]c(N)n1)n1cccn1", "stereo": "stereo not shown", "A": 9.919, "B": 12.89}